Measured values taken from the supplement of paper PMC10849652.
Some of the results follow.

Protein sequences, listed by entry. Tags and fused reporters are not part of them. Lines headed by an entry give the natural chain unless they say otherwise; changes in a name come on top.
UniProt Q9P1Q0: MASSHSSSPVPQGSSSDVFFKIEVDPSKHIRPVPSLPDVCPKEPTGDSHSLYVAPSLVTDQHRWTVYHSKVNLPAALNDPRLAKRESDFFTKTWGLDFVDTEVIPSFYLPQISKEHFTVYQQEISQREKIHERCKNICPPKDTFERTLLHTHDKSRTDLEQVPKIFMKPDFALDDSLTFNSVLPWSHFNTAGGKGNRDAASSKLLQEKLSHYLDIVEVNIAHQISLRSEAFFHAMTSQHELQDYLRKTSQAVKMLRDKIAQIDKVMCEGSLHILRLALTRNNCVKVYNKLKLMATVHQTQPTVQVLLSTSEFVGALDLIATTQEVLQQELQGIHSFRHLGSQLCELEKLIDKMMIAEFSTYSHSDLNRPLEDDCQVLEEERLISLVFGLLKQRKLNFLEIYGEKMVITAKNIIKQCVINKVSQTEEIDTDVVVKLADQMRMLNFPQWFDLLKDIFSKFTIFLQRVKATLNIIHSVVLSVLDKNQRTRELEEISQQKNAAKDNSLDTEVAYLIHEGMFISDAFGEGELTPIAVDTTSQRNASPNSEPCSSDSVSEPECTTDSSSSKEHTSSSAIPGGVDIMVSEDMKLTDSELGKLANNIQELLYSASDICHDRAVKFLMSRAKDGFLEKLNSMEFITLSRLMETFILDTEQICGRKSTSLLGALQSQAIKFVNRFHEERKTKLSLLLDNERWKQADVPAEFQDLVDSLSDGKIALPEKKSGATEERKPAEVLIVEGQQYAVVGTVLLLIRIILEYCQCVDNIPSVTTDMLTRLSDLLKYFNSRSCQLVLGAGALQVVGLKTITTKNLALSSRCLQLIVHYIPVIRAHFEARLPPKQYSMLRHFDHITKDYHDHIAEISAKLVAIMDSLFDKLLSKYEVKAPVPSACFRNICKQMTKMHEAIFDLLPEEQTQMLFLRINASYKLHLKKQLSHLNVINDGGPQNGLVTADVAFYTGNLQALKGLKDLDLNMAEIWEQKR
UniProt Q6PJI9: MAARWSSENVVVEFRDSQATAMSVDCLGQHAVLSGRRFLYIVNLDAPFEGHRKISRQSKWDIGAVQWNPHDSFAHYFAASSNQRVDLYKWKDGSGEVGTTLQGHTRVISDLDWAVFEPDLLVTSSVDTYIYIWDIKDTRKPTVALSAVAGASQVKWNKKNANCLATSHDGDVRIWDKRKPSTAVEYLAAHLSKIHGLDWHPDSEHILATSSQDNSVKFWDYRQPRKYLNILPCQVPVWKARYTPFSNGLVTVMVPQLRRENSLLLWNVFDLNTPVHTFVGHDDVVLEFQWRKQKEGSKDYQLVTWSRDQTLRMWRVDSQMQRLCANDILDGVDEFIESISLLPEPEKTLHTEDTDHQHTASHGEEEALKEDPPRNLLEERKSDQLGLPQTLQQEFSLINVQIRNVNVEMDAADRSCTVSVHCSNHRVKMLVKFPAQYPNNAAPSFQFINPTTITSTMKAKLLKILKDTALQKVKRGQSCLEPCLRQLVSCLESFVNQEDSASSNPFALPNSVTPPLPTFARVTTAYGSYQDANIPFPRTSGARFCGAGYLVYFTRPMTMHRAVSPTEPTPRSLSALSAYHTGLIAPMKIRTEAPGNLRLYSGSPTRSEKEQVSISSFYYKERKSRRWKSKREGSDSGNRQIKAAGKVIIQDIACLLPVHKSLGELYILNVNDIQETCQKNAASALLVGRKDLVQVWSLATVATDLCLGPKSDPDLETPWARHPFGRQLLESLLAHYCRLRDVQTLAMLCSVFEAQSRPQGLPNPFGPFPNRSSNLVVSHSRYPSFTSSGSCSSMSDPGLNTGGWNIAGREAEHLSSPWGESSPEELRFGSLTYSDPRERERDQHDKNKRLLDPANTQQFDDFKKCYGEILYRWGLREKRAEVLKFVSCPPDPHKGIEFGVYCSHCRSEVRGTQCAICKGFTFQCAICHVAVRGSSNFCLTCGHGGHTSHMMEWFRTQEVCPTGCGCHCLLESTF
UniProt Q8N9V3: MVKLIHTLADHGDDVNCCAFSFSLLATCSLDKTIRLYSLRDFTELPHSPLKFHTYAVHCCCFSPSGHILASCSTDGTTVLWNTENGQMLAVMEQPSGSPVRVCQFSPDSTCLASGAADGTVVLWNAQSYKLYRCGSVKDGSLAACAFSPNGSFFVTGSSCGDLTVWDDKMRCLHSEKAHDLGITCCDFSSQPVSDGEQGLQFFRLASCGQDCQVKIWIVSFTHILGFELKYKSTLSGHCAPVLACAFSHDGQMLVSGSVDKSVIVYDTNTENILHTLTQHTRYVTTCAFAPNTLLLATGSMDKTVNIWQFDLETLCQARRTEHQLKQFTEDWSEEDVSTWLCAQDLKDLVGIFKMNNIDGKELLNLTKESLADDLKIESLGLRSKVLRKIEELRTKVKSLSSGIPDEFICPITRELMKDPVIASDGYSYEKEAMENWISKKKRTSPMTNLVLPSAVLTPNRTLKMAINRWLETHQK
UniProt Q9BUR4: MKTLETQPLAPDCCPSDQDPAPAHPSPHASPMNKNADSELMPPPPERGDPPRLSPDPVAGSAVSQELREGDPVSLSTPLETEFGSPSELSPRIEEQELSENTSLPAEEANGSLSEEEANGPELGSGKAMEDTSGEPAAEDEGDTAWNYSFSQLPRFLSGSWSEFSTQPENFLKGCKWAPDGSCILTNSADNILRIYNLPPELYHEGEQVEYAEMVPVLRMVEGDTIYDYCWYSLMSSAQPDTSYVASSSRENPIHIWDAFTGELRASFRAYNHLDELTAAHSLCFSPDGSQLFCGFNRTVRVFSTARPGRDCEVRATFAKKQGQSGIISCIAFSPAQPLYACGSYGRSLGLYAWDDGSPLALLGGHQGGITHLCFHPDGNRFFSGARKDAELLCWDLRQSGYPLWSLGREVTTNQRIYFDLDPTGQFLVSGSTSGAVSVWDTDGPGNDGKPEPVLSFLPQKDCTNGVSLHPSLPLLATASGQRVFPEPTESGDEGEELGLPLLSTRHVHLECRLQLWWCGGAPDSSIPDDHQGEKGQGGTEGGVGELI
UniProt Q9Y2W2: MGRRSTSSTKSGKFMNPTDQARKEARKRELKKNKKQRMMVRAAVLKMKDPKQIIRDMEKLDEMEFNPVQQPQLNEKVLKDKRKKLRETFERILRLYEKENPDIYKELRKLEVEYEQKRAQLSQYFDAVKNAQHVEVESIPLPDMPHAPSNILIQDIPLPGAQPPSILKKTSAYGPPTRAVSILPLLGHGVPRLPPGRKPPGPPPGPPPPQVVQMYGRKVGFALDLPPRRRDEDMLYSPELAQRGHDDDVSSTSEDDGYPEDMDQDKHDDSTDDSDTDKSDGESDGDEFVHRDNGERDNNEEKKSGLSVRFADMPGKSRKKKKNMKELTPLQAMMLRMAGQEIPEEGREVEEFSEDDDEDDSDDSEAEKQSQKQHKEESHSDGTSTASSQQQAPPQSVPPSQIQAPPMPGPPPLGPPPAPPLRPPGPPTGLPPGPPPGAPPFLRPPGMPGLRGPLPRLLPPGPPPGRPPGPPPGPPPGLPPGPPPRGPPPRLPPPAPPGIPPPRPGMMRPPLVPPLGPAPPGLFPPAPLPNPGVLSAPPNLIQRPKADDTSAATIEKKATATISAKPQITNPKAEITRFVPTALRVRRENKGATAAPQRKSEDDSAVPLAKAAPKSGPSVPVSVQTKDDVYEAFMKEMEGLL
UniProt O94967: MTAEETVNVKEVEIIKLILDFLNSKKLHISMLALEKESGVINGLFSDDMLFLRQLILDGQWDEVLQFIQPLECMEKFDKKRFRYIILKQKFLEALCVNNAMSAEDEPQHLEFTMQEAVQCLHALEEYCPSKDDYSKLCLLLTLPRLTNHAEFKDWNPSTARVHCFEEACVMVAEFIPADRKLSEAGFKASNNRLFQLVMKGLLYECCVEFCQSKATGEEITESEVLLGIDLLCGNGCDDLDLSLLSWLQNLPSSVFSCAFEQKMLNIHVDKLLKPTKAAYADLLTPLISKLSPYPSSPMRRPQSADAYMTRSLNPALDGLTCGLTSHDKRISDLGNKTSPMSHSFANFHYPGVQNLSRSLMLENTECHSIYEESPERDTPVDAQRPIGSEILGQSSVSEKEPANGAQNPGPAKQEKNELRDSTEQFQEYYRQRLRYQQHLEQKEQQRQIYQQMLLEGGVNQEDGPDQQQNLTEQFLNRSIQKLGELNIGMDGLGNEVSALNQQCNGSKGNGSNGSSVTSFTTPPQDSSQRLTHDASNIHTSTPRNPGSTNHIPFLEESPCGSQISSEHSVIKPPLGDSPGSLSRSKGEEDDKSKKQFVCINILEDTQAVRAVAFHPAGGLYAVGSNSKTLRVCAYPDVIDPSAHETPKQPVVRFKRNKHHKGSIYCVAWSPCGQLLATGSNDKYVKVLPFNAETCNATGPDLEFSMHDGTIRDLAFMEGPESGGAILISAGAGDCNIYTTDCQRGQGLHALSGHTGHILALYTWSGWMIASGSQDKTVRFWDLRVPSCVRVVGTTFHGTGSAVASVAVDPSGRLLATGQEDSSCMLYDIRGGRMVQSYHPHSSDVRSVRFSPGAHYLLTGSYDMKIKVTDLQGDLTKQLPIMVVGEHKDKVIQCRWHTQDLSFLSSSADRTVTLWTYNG
UniProt O00534: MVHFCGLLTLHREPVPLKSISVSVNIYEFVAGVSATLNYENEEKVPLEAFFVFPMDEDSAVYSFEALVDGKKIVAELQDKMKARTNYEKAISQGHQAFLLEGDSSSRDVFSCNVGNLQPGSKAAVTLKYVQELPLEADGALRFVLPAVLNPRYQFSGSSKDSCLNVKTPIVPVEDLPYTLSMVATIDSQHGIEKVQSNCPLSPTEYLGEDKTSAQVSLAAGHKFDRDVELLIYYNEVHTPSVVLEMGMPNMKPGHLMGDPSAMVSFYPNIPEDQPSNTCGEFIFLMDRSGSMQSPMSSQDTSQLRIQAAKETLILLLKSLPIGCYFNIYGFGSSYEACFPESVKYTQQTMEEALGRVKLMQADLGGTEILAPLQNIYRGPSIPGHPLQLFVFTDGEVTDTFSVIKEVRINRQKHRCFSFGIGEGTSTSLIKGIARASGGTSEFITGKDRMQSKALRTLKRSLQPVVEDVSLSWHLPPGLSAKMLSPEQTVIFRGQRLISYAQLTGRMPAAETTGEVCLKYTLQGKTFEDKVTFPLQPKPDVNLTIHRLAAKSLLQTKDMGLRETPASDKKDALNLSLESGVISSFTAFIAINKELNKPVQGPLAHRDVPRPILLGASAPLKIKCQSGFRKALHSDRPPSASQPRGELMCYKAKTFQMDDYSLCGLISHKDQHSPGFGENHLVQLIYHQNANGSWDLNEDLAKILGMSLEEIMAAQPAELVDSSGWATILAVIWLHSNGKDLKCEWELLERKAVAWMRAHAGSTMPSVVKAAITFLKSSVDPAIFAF
UniProt Q8TF74: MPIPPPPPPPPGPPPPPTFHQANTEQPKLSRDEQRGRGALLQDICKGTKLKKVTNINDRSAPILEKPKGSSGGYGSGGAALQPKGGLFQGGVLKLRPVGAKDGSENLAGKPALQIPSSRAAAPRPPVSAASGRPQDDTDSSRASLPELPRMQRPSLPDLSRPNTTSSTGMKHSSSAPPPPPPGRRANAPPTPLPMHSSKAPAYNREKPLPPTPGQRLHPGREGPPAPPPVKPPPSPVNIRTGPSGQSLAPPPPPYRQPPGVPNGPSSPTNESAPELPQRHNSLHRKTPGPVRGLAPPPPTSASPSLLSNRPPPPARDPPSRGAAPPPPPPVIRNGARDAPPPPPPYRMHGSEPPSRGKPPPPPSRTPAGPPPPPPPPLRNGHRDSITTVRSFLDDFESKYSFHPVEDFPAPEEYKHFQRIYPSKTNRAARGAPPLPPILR

What was measured:
Assay in all cases: log2 fold change, soluble protein after heating vs DMSO (PISA); higher = thermal stabilisation; K562 lysate, 10 uM; active = over 0.2 and 3.5 SD of the protein, either way, in both replicates (recomputed)
ibrutinib = compound: C=CC(=O)N1CCC[C@@H](n2nc(-c3ccc(Oc4ccccc4)cc3)c3c(N)ncnc32)C1 [ibrutinib]
Method in brief: (§1)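 K562 pellets were dounce-homogenised in PBS pH 7.4 containing 1 mM MgCl2, and the crude extract, at 1 mg/mL protein, was exposed to 10 μM compound for 30 min. Aliquots were heated for 3 min across 48°C-58°C, pooled, brought to 0.5% NP-40 at 4°C and spun at 21,000xg for 90 min, with the supernatant taken as soluble protein. TMTpro 16plex LC-MS/MS with equalised channel sums quantified that protein. Values are log-two fold changes in thermal stability relative to solvent controls, taken from duplicates.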

[1] = compound: CC(=O)c1cnc2ccc(-c3cc(Cl)c(O)c(Cl)c3)nc2c1N[C@H]1CC[C@H](CN(C)C)CC1
Method in brief: as §1

ralimetinib = compound: CC(C)(C)Cn1c(N)nc2ccc(-c3[nH]c(C(C)(C)C)nc3-c3ccc(F)cc3)nc21 [ralimetinib]
Method in brief: as §1

[2] = compound: CC(C)(O)CC(=O)NCCn1ccc2ncnc(Nc3ccc(Oc4cccc(C(F)(F)F)c4)c(Cl)c3)c21
Method in brief: as §1

[3] = compound: CC(C)C1=C2N=C(C=C(N2N=C1)NCC3=CC=CC=C3)NCCCCCCN
Method in brief: as §1

[4] = compound: CC1=C(C(CC(=O)N1)C2=CC=C(C=C2)C(F)(F)F)C(=O)NC3=C(C=C4C(=C3)C=NN4)F
Method in brief: as §1

[5] = compound: CC1=C(C2=C(C=C1)C(=O)C3=CC=CC=C3N2CCCN)C
Method in brief: as §1

[6] = compound: CC1=C(C=C(C=C1)NC(=O)C2=CC(=CC=C2)C(C)(C)C#N)NC3=CC4=C(C=C3)N=CN(C4=O)C
Method in brief: as §1

[7] = compound: CC1=C(C=C(C=C1)NC(=O)C2=CC(=CC=C2)N(C)C)NC(=O)C3=CC=C(C=C3)O
Method in brief: as §1

[8] = compound: CC1=CC=C(C=C1)SC2=C3C=C(SC3=CN=C2)C(=O)N
Method in brief: as §1

vemurafenib = compound: CCCS(=O)(=O)Nc1ccc(F)c(C(=O)c2c[nH]c3ncc(-c4ccc(Cl)cc4)cc23)c1F [vemurafenib]
Method in brief: as §1

[9] = compound: CCCS(=O)(=O)Nc1ccc(F)c(C(=O)c2c[nH]c3ncc(Cl)cc23)c1F
Method in brief: as §1

barasertib = compound: CCN(CCCOc1ccc2c(Nc3cc(CC(=O)Nc4cccc(F)c4)[nH]n3)ncnc2c1)CCOP(=O)(O)O [barasertib]
Method in brief: as §1

[10] = compound: CC[C@@H]1C(=O)N(C)c2cnc(Nc3ccc(C(=O)NC4CCN(C)CC4)cc3OC)nc2N1C1CCCC1
Method in brief: as §1

volasertib = compound: CC[C@@H]1C(=O)N(C)c2cnc(Nc3ccc(C(=O)N[C@H]4CC[C@H](N5CCN(CC6CC6)CC5)CC4)cc3OC)nc2N1C(C)C [volasertib]
Method in brief: as §1

[11] = compound: CCn1c(C(=O)N(C2CC2)C2CC2)cc2c3c(ncn3C)c(Nc3cc(C)n(C)n3)nc21
Method in brief: as §1

[12] = compound: CCn1cc(-c2ccnc3[nH]c(-c4cccc(CN(C)C)c4)cc23)c(-c2ccc(NC(=O)N(C)C)cc2)n1
Method in brief: as §1

[13] = compound: CN1CCC(CNc2ccc3ncc(-c4cccc(OC(F)(F)F)c4)n3n2)CC1
Method in brief: as §1

saracatinib = compound: CN1CCN(CCOc2cc(OC3CCOCC3)c3c(Nc4c(Cl)ccc5c4OCO5)ncnc3c2)CC1 [saracatinib]
Method in brief: as §1

sotrastaurin = compound: CN1CCN(c2nc(C3=C(c4c[nH]c5ccccc45)C(=O)NC3=O)c3ccccc3n2)CC1 [sotrastaurin]
Method in brief: as §1

Measured: log2 fold change

VPS54 (UniProt Q9P1Q0)
inactive: ibrutinib 0.048 | [1] -0.059 | ralimetinib -0.122 | [2] -0.267 | [3] -0.004 | [4] 0.038 | [5] 0.04 | [6] 0.144 | [7] 0.066 | [8] -0.037 | vemurafenib 0.046 | [9] -0.015 | barasertib -0.042 | [10] -0.037 | volasertib 0.068 | [11] -0.259 | [12] -0.278 | [13] 0.141 | saracatinib 0.05 | sotrastaurin -0.087

WDR59 (UniProt Q6PJI9)
inactive: ibrutinib 0.074 | [1] -0.014 | ralimetinib 0.034 | [2] -0.062 | [3] -0.012 | [4] -0.008 | [5] -0.006 | [6] 0.009 | [7] 0.056 | [8] 0.015 | vemurafenib 0.055 | [9] 0.017 | barasertib 0.05 | [10] 0.029 | volasertib -0.047 | [11] -0.021 | [12] 0 | [13] -0.027 | saracatinib 0.031 | sotrastaurin 0.014

WDSUB1 (UniProt Q8N9V3)
inactive: ibrutinib -0.004 | [1] -0.008 | ralimetinib -0.027 | [2] -0.017 | [3] -0.009 | [4] -0.054 | [5] 0.004 | [6] 0.02 | [7] -0.014 | [8] -0.04 | vemurafenib 0 | [9] 0.015 | barasertib -0.02 | [10] 0.027 | volasertib 0.006 | [11] 0.018 | [12] -0.082 | [13] 0.068 | saracatinib -0.007 | sotrastaurin 0.036

WRAP53 (UniProt Q9BUR4)
inactive: ibrutinib 0.091 | [1] -0.065 | ralimetinib 0.052 | [2] -0.025 | [3] -0.042 | [4] 0.035 | [5] 0.042 | [6] 0.041 | [7] 0.019 | [8] 0.012 | vemurafenib 0.011 | [9] 0.001 | barasertib -0.031 | [10] -0.082 | volasertib 0.005 | [11] -0.086 | [12] -0.038 | [13] 0.099 | saracatinib 0.076 | sotrastaurin -0.039

WBP11 (UniProt Q9Y2W2)
inactive: ibrutinib 0.028 | [1] 0.027 | ralimetinib 0.01 | [2] -0.022 | [3] 0.009 | [4] -0.018 | [5] 0.02 | [6] 0.041 | [7] -0.01 | [8] 0.01 | vemurafenib -0.033 | [9] -0.016 | barasertib -0.03 | [10] 0.031 | volasertib 0.037 | [11] -0.017 | [12] -0.043 | [13] 0.01 | saracatinib 0.004 | sotrastaurin -0.002

WDR47 (UniProt O94967)
inactive: ibrutinib 0.169 | [1] 0.02 | ralimetinib 0.006 | [2] 0.035 | [3] 0.027 | [4] 0.093 | [5] -0.009 | [6] 0.033 | [7] -0.017 | [8] 0.049 | vemurafenib 0.021 | [9] 0.05 | barasertib 0.049 | [10] 0.025 | volasertib -0.042 | [11] 0.095 | [12] -0.061 | [13] 0 | saracatinib 0.038 | sotrastaurin 0.005

VWA5A (UniProt O00534)
inactive: ibrutinib 0.037 | [1] -0.008 | ralimetinib 0.002 | [2] -0.025 | [3] 0.006 | [4] 0.021 | [5] -0.089 | [6] -0.002 | [7] -0.022 | [8] -0.013 | vemurafenib 0.041 | [9] 0.058 | barasertib 0.034 | [10] 0.016 | volasertib -0.013 | [11] 0.009 | [12] -0.201 | [13] 0.085 | saracatinib -0.004 | sotrastaurin -0.002

WIPF2 (UniProt Q8TF74)
inactive: ibrutinib 0.051 | [1] -0.024 | ralimetinib 0 | [2] -0.026 | [3] 0.026 | [4] 0.023 | [5] -0.005 | [6] -0.016 | [7] -0.008 | [8] 0.005 | vemurafenib 0.009 | [9] 0.034 | barasertib -0.04 | [10] 0.058 | volasertib 0.019 | [11] -0.014 | [12] -0.098 | [13] 0.051 | saracatinib 0.038 | sotrastaurin 0.063

Taken from the entries so far (2 entries):
WDR47 (UniProt O94967)
inactive: ibrutinib 0.169 | [1] 0.02 | ralimetinib 0.006 | [2] 0.035 | [3] 0.027 | [4] 0.093 | [5] -0.009 | [6] 0.033 | [7] -0.017 | [8] 0.049 | vemurafenib 0.021 | [9] 0.05 | barasertib 0.049 | [10] 0.025 | volasertib -0.042 | [11] 0.095 | [12] -0.061 | [13] 0 | saracatinib 0.038 | sotrastaurin 0.005

VWA5A (UniProt O00534)
inactive: ibrutinib 0.037 | [1] -0.008 | ralimetinib 0.002 | [2] -0.025 | [3] 0.006 | [4] 0.021 | [5] -0.089 | [6] -0.002 | [7] -0.022 | [8] -0.013 | vemurafenib 0.041 | [9] 0.058 | barasertib 0.034 | [10] 0.016 | volasertib -0.013 | [11] 0.009 | [12] -0.201 | [13] 0.085 | saracatinib -0.004 | sotrastaurin -0.002
